# In PMC7819943, “Rice protein-binding microarrays: a tool to detect cis-acting elements near promoter regions in rice”:
# Protein sequences, listed by entry. Tags and fused reporters are not part of them.
# UniProt Q0JBA9, entry or part of it: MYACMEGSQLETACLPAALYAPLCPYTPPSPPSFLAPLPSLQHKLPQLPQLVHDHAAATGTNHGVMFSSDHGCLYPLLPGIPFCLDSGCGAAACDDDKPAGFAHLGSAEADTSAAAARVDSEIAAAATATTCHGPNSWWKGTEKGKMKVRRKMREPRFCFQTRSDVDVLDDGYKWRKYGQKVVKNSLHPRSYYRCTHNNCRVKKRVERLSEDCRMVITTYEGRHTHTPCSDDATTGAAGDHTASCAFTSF
# Some of the results follow.
# Target: OsWRKY34 (Oryza sativa, UniProt Q0JBA9 1-250)
# Test: protein-binding microarray (RPBM); PBS, 2% BSA, 51.3 ng/ul salmon testes DNA, 50 uM zinc acetate, 200 nM TF, 25 C, 1 h; high values mean tight binding
# Settings: protein: recombinant; tags: N-terminal polyhistidine and DsRed monomer fusion (pET32a); label: CyDye5-dUTP incorporated in the synthesized complementary strand; 3' TTTTT single-stranded linker to array surface; dsDNA, one strand shown
# In short: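 Transcription factors, each fused N-terminally to a polyhistidine tag and DsRed, were expressed in E. coli BL21-CodonPlus and purified on Ni–NTA. A custom Agilent array was made double-stranded by primer extension with Cy5-dUTP and blocked with 2% BSA. It was incubated with 200 nM protein in PBS, 2% BSA, salmon testes DNA and 50 µM zinc acetate at 25 °C for 1 h, then washed. The binding signal is per-feature fluorescence intensity (arbitrary units) read on an Axon 4000B scanner.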
row,Sequence,binding signal
1,CCGCCCGCCGTCGCTCCGTCCACCGCCCACTGCCGCGCCGCGGAGTCACCTAGTGCAG,12000 fluorescence intensity (a.u.)
2,CAACCGCAAAACTATATACATGGTCTCTTAACAATACAATCGGAGTCACCTAGTGCAG,8180 fluorescence intensity (a.u.)
3,GACTCATTTTATAGCTCGCGCGACCGCCTCATCGAGCTGACGGAGTCACCTAGTGCAG,8730 fluorescence intensity (a.u.)
4,GGCCACCACCACCGCCCGCGCGCCACACCTATAAAACCTCCGGAGTCACCTAGTGCAG,9310 fluorescence intensity (a.u.)
5,TTCTTGACTTCTTGCCAGTGCTGTTGTACATCTCAATCCACGGAGTCACCTAGTGCAG,9360 fluorescence intensity (a.u.)
6,CTGCAGGCTGCAGCATGCCACTTCAGGTTGACTTTACCACCGGAGTCACCTAGTGCAG,9040 fluorescence intensity (a.u.)
7,CACCACATGTTTTGTCACAGTCGTCACATGTCTCATCTCTCGGAGTCACCTAGTGCAG,15000 fluorescence intensity (a.u.)
8,GATCTATGTGTTTTGAATGTGTGATTTTATGGCTGGGTTTCGGAGTCACCTAGTGCAG,12700 fluorescence intensity (a.u.)
9,CTAATACTCCATGTGTATAACCATTATCCATTTCATCTAACGGAGTCACCTAGTGCAG,9590 fluorescence intensity (a.u.)
10,CATGGCCCCACCGCTCAGTGACACGGCAGTTCTCGTTTTGCGGAGTCACCTAGTGCAG,9180 fluorescence intensity (a.u.)
11,GCTTCGGTTCCCCGTTTCCGCCTGTGCCGTGGCCACCGAGCGGAGTCACCTAGTGCAG,8160 fluorescence intensity (a.u.)
12,CTTCTACTGCTGCTTCTCCTCAACCTCTTCTTCTTCTTCCCGGAGTCACCTAGTGCAG,9320 fluorescence intensity (a.u.)
13,CCGTTTGTTTTTTTTCCTTCTTCAAATATATATATATATACGGAGTCACCTAGTGCAG,13200 fluorescence intensity (a.u.)
14,TTCCGACTTCATATTTCGCTTATGCTCATACTTTTCAGCCCGGAGTCACCTAGTGCAG,8360 fluorescence intensity (a.u.)
15,AGTGACCAATCATTAGGTGATAAATCCCATATGCTTTTGTCGGAGTCACCTAGTGCAG,8210 fluorescence intensity (a.u.)
16,TTAGCTTAATTATTACAAATTGTTGACTTTTTAAAATCATCGGAGTCACCTAGTGCAG,9860 fluorescence intensity (a.u.)
17,ACATTCACAGTTGCTATAGTTGTTGCTGCCACTGCCTATTCGGAGTCACCTAGTGCAG,10900 fluorescence intensity (a.u.)
18,CACTCCACCATTGTCATCTTTACTATCGGTAATTGTTGATCGGAGTCACCTAGTGCAG,8440 fluorescence intensity (a.u.)
19,CGCTACCTGCTCGCGCGGGAGCTCGTGGGCCCACCCGCGCCGGAGTCACCTAGTGCAG,8840 fluorescence intensity (a.u.)
20,GCCGCCACGACACCCTTGTCCTCCTGCTCCGTAGCAGCCTCGGAGTCACCTAGTGCAG,9140 fluorescence intensity (a.u.)
21,TTCACTTGTATTTTTCCATATCGCTTCCATTTTAAGCTGACGGAGTCACCTAGTGCAG,14600 fluorescence intensity (a.u.)
22,TCCATGGCTCATATTGTCTTCGAGTACTCCCATCGATCGACGGAGTCACCTAGTGCAG,11400 fluorescence intensity (a.u.)
23,ACTAAGGCCTTTATGCTTGTGGGAGGGATTAAACGAAATTCGGAGTCACCTAGTGCAG,14100 fluorescence intensity (a.u.)
24,ACTCTAGCAACAAACTCTATGCATACACTATCCCCACTATCGGAGTCACCTAGTGCAG,8210 fluorescence intensity (a.u.)
25,AATGTGATTCTTGTCGGATGCATGCTGTTGTTTCTCAGAACGGAGTCACCTAGTGCAG,11400 fluorescence intensity (a.u.)
26,TCTTCTTGTAGAGGGCTATGAATGATCCTGACTTTTATCTCGGAGTCACCTAGTGCAG,8950 fluorescence intensity (a.u.)
27,ATGTCCAAATTTATTGTTCAATGGCTGATCTGTCCTTTTTCGGAGTCACCTAGTGCAG,8380 fluorescence intensity (a.u.)

row,Sequence,binding signal
1,ATTGAAGGTCTGCCTGTTTCAGATCATGCTTCTTGTATTTCGGAGTCACCTAGTGCAG,8960 fluorescence intensity (a.u.)
2,TTCATATCCCTTAATCCGTTCGTCCGATTGCCTCCGTTCCCGGAGTCACCTAGTGCAG,10200 fluorescence intensity (a.u.)
3,ATCTTTTTTTTTCACCTTCTTTGTCTTCTTCCTTCCCAAACGGAGTCACCTAGTGCAG,10200 fluorescence intensity (a.u.)
4,TATAATATTTGTTTCAGCCACCTAGCAACATTGTGGAACTCGGAGTCACCTAGTGCAG,9500 fluorescence intensity (a.u.)
5,ATAACATCATGTTCTTTCACTGTGTTTTTTTTTTGCAAATCGGAGTCACCTAGTGCAG,8260 fluorescence intensity (a.u.)
6,TGCACTCCGACTCCCGATTTTTGGTTTCGATCTGGTCGCACGGAGTCACCTAGTGCAG,10700 fluorescence intensity (a.u.)
7,GATCCAACCCGTGCCCGCCCGCCTCGACATGCGCGTCCGACGGAGTCACCTAGTGCAG,8970 fluorescence intensity (a.u.)
8,TAAGAAGAGGATGGGGTCATGGGGTGTTAGTTAATTGCATCGGAGTCACCTAGTGCAG,9690 fluorescence intensity (a.u.)
9,CTTTTCTTTTCAATTTTTTGAGCGTTGACCATACTTAAATCGGAGTCACCTAGTGCAG,14800 fluorescence intensity (a.u.)
10,AGGTGTTCGTTTTTTCTTTCTTTTTTTTGAATAACAGAATCGGAGTCACCTAGTGCAG,10700 fluorescence intensity (a.u.)
11,GAGAGGGGCTGTATATGTACTAGTAGTAGAGGTTAGCGTTCGGAGTCACCTAGTGCAG,10600 fluorescence intensity (a.u.)
12,ACTGGATTATTAGTTGTTTGTAAGCTGTACGTTAGCCATACGGAGTCACCTAGTGCAG,10500 fluorescence intensity (a.u.)
13,ATGGTAGTGCCTCTCATCCATACAACACGGCTTCCTCATGCGGAGTCACCTAGTGCAG,8150 fluorescence intensity (a.u.)
14,CCAATTTCTCTCTCCACATCTCTCTGTGTTTCTTTTATTTCGGAGTCACCTAGTGCAG,9680 fluorescence intensity (a.u.)
15,GACCTAACTCCGTCCACTTCCACACTACTACTACTGTCTACGGAGTCACCTAGTGCAG,10200 fluorescence intensity (a.u.)
16,TTCGTGGTCTGGTTGGCAACAGTTTCCTGTCCGTTGCTTTCGGAGTCACCTAGTGCAG,8540 fluorescence intensity (a.u.)
17,CCCTCACTTTACATTTTTTTTCTCTTATAATTTATTTTTTCGGAGTCACCTAGTGCAG,13300 fluorescence intensity (a.u.)
18,TGGTTACATTCTAAATCAAGAGCCTCATCTTTTCGCTTATCGGAGTCACCTAGTGCAG,8440 fluorescence intensity (a.u.)
19,ACTATTGGTTCCGTTTGTGAACCTGGCAATGTTTTGTAATCGGAGTCACCTAGTGCAG,8680 fluorescence intensity (a.u.)
20,CATTGGGCTGGGCTAGCCTTTGTTGGGCCGTTTTAAATCACGGAGTCACCTAGTGCAG,8270 fluorescence intensity (a.u.)
21,ACTTCAGATGTTTCTTGTTCCTACACTTCGCTGCTTCAGTCGGAGTCACCTAGTGCAG,11800 fluorescence intensity (a.u.)
22,GGGTCTCATAGTGTTTGTTATTTTTTTTGGATCGAACTACCGGAGTCACCTAGTGCAG,8380 fluorescence intensity (a.u.)
23,CCGCCTGGTCGCCACCACCGCTCGCAACCGCCTGGCCGTCCGGAGTCACCTAGTGCAG,10800 fluorescence intensity (a.u.)
24,AGGTATATTCTTATAAGTAATTTTTATTCCACAAAATTTTCGGAGTCACCTAGTGCAG,8510 fluorescence intensity (a.u.)
25,GTTATTTATCCGGCTACGAGCCAATGCACGTAAACAATCTCGGAGTCACCTAGTGCAG,8260 fluorescence intensity (a.u.)
26,GTCACGCACCTACTCCGCTACTGCTTGCGACTCGCGAGACCGGAGTCACCTAGTGCAG,8650 fluorescence intensity (a.u.)
27,GAAGAGGCACGCACCACGAAGTCGCCACCTCGATTTTTCCCGGAGTCACCTAGTGCAG,9140 fluorescence intensity (a.u.)

# Fetched one by one from above, 4 records:
row,Sequence,binding signal
11,GAGAGGGGCTGTATATGTACTAGTAGTAGAGGTTAGCGTTCGGAGTCACCTAGTGCAG,10600 fluorescence intensity (a.u.)
20,CATTGGGCTGGGCTAGCCTTTGTTGGGCCGTTTTAAATCACGGAGTCACCTAGTGCAG,8270 fluorescence intensity (a.u.)
10,AGGTGTTCGTTTTTTCTTTCTTTTTTTTGAATAACAGAATCGGAGTCACCTAGTGCAG,10700 fluorescence intensity (a.u.)
8,TAAGAAGAGGATGGGGTCATGGGGTGTTAGTTAATTGCATCGGAGTCACCTAGTGCAG,9690 fluorescence intensity (a.u.)
